Test results: the supplement of paper PMC11659162
This is one part of the list. The data scatter; read single values as rough.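 The cells are a human neuroglioma line carrying a green fluorescent autophagy reporter.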

Columns and labels:
H4 GFP-LC3 [1] = experiment: cell viability (scaled to control) (fraction of control); higher = more viable cells
H4 GFP-LC3 [2] = experiment: ACBP immunofluorescence intensity (scaled to control) (AU (scaled)); higher = more intracellular ACBP/DBI

| Compound | cell viability (H4 GFP-LC3 [1]; 6 h) | cell viability (H4 GFP-LC3 [1]; 24 h) | ACBP immunofluorescence intensity (H4 GFP-LC3 [2]; 6 h) | ACBP immunofluorescence intensity (H4 GFP-LC3 [2]; 24 h) |
| --- | --- | --- | --- | --- |
| CC(C)NCC(O)COc1ccc(CCOCC2CC2)cc1 (stereo not given) (5 µM) | 0.947 | 1.06 | 0.886 | 0.499 |
| CCOC(=O)c1ncn2c1CN(C)C(=O)c1cc(F)ccc1-2 (5 µM) | 0.862 | 1.19 | 0.933 | 0.498 |
| CC(C)(C)NCC(O)c1ccc(O)c(CO)c1 (stereo not given) (5 µM) | 0.834 | 0.781 | 0.778 | 0.354 |
| NC(=O)CCCCn1ccc(NC(N)=NCC(F)(F)F)n1 (5 µM) | 1.03 | 1.09 | 0.874 | 0.526 |
| CC(C)[N+]1(C)[C@@H]2CC[C@H]1C[C@@H](OC(=O)C(CO)c1ccccc1)C2 (stereo not given in full) (5 µM) | 0.923 | 1.13 | 0.88 | 0.509 |
| CN(C)CCCSC(=N)N (5 µM) | 1.12 | 0.982 | 0.882 | 0.517 |
| CCC(NC(C)C)C(O)c1ccc(O)c2[nH]c(=O)ccc12 (stereo not given) (5 µM) | 0.914 | 0.803 | 0.728 | 0.391 |
| Clc1cccc(Cl)c1NC1=NCCN1 (5 µM) | 0.761 | 0.927 | 0.849 | 0.476 |
| COc1ccc(CN(CCN(C)C)c2ccccn2)cc1 (5 µM) | 1.15 | 1.08 | 0.96 | 0.829 |
| C[C@H](NC(=O)CNC(=O)[C@@H](NC(=O)[C@H](Cc1ccccc1)NC(=O)CNC(=O)CNC(=O)[C@@H](N)Cc1ccccc1)[C@@H](C)O)C(=O)N[C@@H](CCCN=C(N)N)C(=O)N[C@@H](CCCCN)C(=O)N[C@@H](CO)C(=O)N[C@@H](C)C(=O)N[C@@H](CCCN=C(N)N)C(=O)N[C@@H](CCCCN)C(N)=O (5 µM) | 1.09 | 1.22 | 0.832 | 0.888 |

2 of the compounds above, tab-delimited.
Compound	cell viability (H4 GFP-LC3 [1]; 6 h)	cell viability (H4 GFP-LC3 [1]; 24 h)	ACBP immunofluorescence intensity (H4 GFP-LC3 [2]; 6 h)	ACBP immunofluorescence intensity (H4 GFP-LC3 [2]; 24 h)
CC(C)(C)NCC(O)c1ccc(O)c(CO)c1 (stereo not given) (5 µM)	0.834	0.781	0.778	0.354
CC(C)[N+]1(C)[C@@H]2CC[C@H]1C[C@@H](OC(=O)C(CO)c1ccccc1)C2 (stereo not given in full) (5 µM)	0.923	1.13	0.88	0.509
